Earlier results, collected in patent US20220401505A1, “COMPOSITION FOR REDUCING CARDIOVASCULAR RISK” (NEILOS S.R.L., priority 2019, published 2022).
At least one structure is not confirmed: it was looked up by name or label, or the drawing left a doubt.

Target: T1, HMG-CoA reductase enzyme (Homo sapiens, UniProt P04035)
T1 sequence (P04035 426-888 limits assumed): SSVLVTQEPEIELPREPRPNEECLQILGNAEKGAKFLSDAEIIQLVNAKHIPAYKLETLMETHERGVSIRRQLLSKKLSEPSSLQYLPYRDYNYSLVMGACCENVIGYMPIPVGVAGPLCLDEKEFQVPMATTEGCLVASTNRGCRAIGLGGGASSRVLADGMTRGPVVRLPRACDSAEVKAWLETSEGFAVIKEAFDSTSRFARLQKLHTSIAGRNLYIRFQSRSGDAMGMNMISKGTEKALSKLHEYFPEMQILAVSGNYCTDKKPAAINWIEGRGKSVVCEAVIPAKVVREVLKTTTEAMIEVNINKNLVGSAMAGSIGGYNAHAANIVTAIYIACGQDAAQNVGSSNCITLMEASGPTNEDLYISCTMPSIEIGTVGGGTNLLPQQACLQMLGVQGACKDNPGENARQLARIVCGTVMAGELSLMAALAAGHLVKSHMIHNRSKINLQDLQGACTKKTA
Settings: in-silico study

In the case of `C[C@@H]1O[C@@H](OC[C@H]2O[C@@H](Oc3c(-c4ccc(O)c(O)c4)oc4cc(O)cc(O)c4c3=O)[C@H](O)[C@@H](O)[C@@H]2O)[C@H](O)[C@H](O)[C@H]1O` [rutin], the “binding affinity for the active site of the HMG-CoA reductase enzyme” value is given as “high binding affinity”.
